{"source": "patent US12534729B2", "about": "“Uses of synthetic lethal partners for treatment of cancer” (Sanford Burnham Prebys Medical Discovery Institute, priority 2019, dated 2026)", "type_in_all_cases": "cell-based, human", "key": {"[1]": {"test_system": "A375 and UACC-903 melanoma cells", "experiment": "Cell proliferation (cell count) of melanoma lines", "settings": "A375 and UACC-903, 72 hr; for inhibition of melanoma cell proliferation, drug alone: CI-1040 500 nM, PD-325901 250 nM, GDC-0879 250 nM; for inhibition of melanoma cell proliferation, drug combined with ASNS knockdown: same concentrations plus si-ASNS", "protocol": "siRNA Transfection: 1×10^5 cells were seeded overnight (O/N) per well in 6-well plates. Negative control (NT-siRNA) or si-RNA targeting the transcript of interest was transfected utilizing jetPRIME® transfection reagent, as per manufacturer's instructions (Polyplus, NY, USA). Following siRNAs were used: si-ASNS #1 (SASI_Hs02_00332309), si-ASNS #2 (SASI_Hs01_00116721), si-ASNS #3 (SASI_Hs01_00116722), si-ATF4 (SASI_Hs02_00332313), si-eIF4E (SASI_Hs01_00216117), si-BRAF (SASI_Hs01_00107705), si-GCN2 (SASI_Hs01_00097888), si-MNK #1 (SASI_Hs01_00228422), si-MNK1 #2 (SASI_Hs01_00228423), si-MNK1 #3 (SASI_Hs01_00228424), and the negative control si-RNA (NT-siRNA; SIC001) were purchased from Sigma-Aldrich.\nCell Proliferation: For cell proliferation, 0.3-0.5×10^5 cells were seeded O/N in triplicate in 6-well plate. Following treatment for the specified duration, cells were trypsinized and the cell count was determined with Neubauer hemocytometer (Celeromics, Cambridge, UK)."}, "[2]": {"test_system": "ATF4", "experiment": "Immunoblotting/qRT-PCR of ATF4 induction (GCN2-ATF4 axis) after ASNS knockdown", "protocol": "(§1) Immunoblotting: Total protein was extracted in Laemmli buffer, fractionated by SDS polyacrylamide gels and transferred to PVDF membranes (Millipore Sigma, MA, USA). After blocking with 5% non-fat dry milk (BD Biosciences, CA, USA), the membranes were incubated with primary antibodies overnight at 4° C. Afterwards, 2 hr incubation with HRP-conjugated secondary antibodies was performed. Following chemiluminescence reaction, the protein signal was visualized using the ChemiDoc imaging system (Bio-Rad, Hercules, CA) according to the manufacturer's instructions.\nqPCR Analysis: 1×10^5 cells were seeded O/N per well in 6-well plates. Following treatment for 48 hr, total RNA was extracted using RNeasy Mini Kit (Qiagen, Hilden, Germany). cDNA was synthesized using oligo(dT) and random primers (AB Bioscience, MA, USA), and qPCR analysis was performed with SYBR Green (Roche, NJ, USA). Primers were designed using the PrimerQuest tool (Integrated DNA Technologies, CA, USA) and Primer Bank Actin was used as an internal control."}, "[3]": {"test_system": "ERK1/2", "experiment": "Immunoblotting of phosphorylated MEK1/2 and ERK1/2 (MAPK signaling)", "settings": "melanoma cells, 72 hr; gefitinib 1 μM, sunitinib 500 nM", "protocol": "as §1"}}, "note": "For some of these results: At least one compound was matched to its structure with a doubt left. Some entries share one result that the patent states for a list of compounds.", "data": [{"smiles": "O=C(NOCC1CC1)c1ccc(F)c(F)c1Nc1ccc(I)cc1Cl", "note": "[CI-1040]", "values": [{"measurement": "inhibition of melanoma cell proliferation, drug alone", "setting": "[1]", "result": "40-60%"}, {"measurement": "inhibition of melanoma cell proliferation, drug combined with ASNS knockdown", "setting": "[1]", "result": "> 80", "unit": "%"}]}, {"smiles": "OCCn1cc(-c2ccc3c(c2)CC/C3=N\\O)c(-c2ccncc2)n1", "note": "[GDC-0879]", "values": [{"measurement": "inhibition of melanoma cell proliferation, drug alone", "setting": "[1]", "result": "40-60%"}, {"measurement": "inhibition of melanoma cell proliferation, drug combined with ASNS knockdown", "setting": "[1]", "result": "> 80", "unit": "%"}]}, {"smiles": "CO[C@H]1C[C@@H]2CC[C@@H](C)[C@@](O)(O2)C(=O)C(=O)N2CCCC[C@H]2C(=O)O[C@H]([C@H](C)C[C@@H]2CC[C@@H](O)[C@H](OC)C2)CC(=O)[C@H](C)/C=C(\\C)[C@@H](O)[C@@H](OC)C(=O)[C@H](C)C[C@H](C)/C=C/C=C/C=C/1C", "note": "[rapamycin]", "values": [{"measurement": "ATF4 induction and upregulation of ATF4 targets following ASNS knockdown", "setting": "[2]; melanoma and pancreatic cancer cell lines, rapamycin 100 nM, Torin 1 100 nM", "result": "blocked both ATF4 induction and upregulation of ATF4 targets seen following ASNS knockdown"}]}, {"smiles": "CCN(CC)CCNC(=O)c1c(C)[nH]c(/C=C2\\C(=O)Nc3ccc(F)cc32)c1C", "note": "[sunitinib]", "values": [{"measurement": "MEK1/2 and ERK1/2 phosphorylation under ASNS knockdown", "setting": "[3]", "result": "antagonized enhanced phosphorylation of both MEK1/2 and ERK1/2 following ASNS knockdown"}, {"measurement": "ATF4 induction following ASNS knockdown (immunoblot)", "setting": "[2]; melanoma cells, 72 hr, ISRIB 200 nM, eFT508 100 nM, sunitinib 500 nM", "result": "overcame ATF4 upregulation in ASNS-depleted cells"}]}]}
